Values from PubChem BioAssay AID1224830 (NIAID, 2016)
Here is an unselected part of about 18,000 deposited reagents. Of all reagents, about 2,900 (16%) were called active. 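Calls are made per well; low scores hint the gene aids the LPS response, high scores that it dampens it.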 Repeated entries: four replicate wells of each siRNA pool.

Purpose: 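Host factors that control LPS-induced TNF expression in human macrophages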 (primary screen)
System: human THP-1 monocytic leukaemia cells, TNF dual-luciferase reporter clone, PMA-differentiated to macrophage-like cells
Knock-down reagent: siRNA pool against human genes, 50 nM
Duration: LPS for 4 h, given about 3 days after siRNA transfection
Challenge: bacterial LPS (TLR4 ligand), 10 ng/ml
Measured: 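TNF firefly reporter luminescence divided by renilla, normalised to the plate median, then turned into a robust z-score for each replicate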
Scale: TNF reporter robust z-score: higher = stronger TNF reporter response to LPS
Call rule: 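Each well counts as active if its z-score is over 2.8 or under -1.5; controls are left without a call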

no.	Gene	TNF reporter robust z-score	Call
1	STXBP5 (GeneID 134957)	2.51	inactive
2	STXBP5 (GeneID 134957)	2.68	inactive
3	STXBP5 (GeneID 134957)	1.12	inactive
4	STXBP5 (GeneID 134957)	2.83	active
5	DTX4 (GeneID 23220)	1.89	inactive
6	DTX4 (GeneID 23220)	1.44	inactive
7	DTX4 (GeneID 23220)	1.73	inactive
8	DTX4 (GeneID 23220)	1.27	inactive
9	TMEM202 (GeneID 338949)	0	inactive
10	TMEM202 (GeneID 338949)	-0.27	inactive
11	TMEM202 (GeneID 338949)	0.12	inactive
12	TMEM202 (GeneID 338949)	-0.39	inactive
13	ZNF277 (GeneID 11179)	-0.78	inactive
14	ZNF277 (GeneID 11179)	0.02	inactive
15	ZNF277 (GeneID 11179)	0.8	inactive
16	ZNF277 (GeneID 11179)	-0.27	inactive
17	EEF2 (GeneID 1938)	1.92	inactive
18	EEF2 (GeneID 1938)	2.49	inactive
19	EEF2 (GeneID 1938)	1.83	inactive
20	EEF2 (GeneID 1938)	0.75	inactive
21	BRD10 (GeneID 158358)	0.37	inactive
22	BRD10 (GeneID 158358)	1.59	inactive
23	BRD10 (GeneID 158358)	-0.02	inactive
24	BRD10 (GeneID 158358)	1.27	inactive
25	TEDC2 (GeneID 80178)	-0.77	inactive
26	TEDC2 (GeneID 80178)	-0.47	inactive
27	TEDC2 (GeneID 80178)	-0.31	inactive
28	TEDC2 (GeneID 80178)	-0.42	inactive
29	IGHMBP2 (GeneID 3508)	-0.95	inactive
30	IGHMBP2 (GeneID 3508)	-0.37	inactive
31	IGHMBP2 (GeneID 3508)	-1.19	inactive
32	IGHMBP2 (GeneID 3508)	-0.67	inactive
33	ZBBX (GeneID 79740)	0.14	inactive
34	ZBBX (GeneID 79740)	0.35	inactive
35	ZBBX (GeneID 79740)	-1.26	inactive
36	ZBBX (GeneID 79740)	0.45	inactive
37	CCDC106 (GeneID 29903)	1.59	inactive
38	CCDC106 (GeneID 29903)	0.59	inactive
39	CCDC106 (GeneID 29903)	2.89	active
40	CCDC106 (GeneID 29903)	1.98	inactive
41	C1RL (GeneID 51279)	-0.1	inactive
42	C1RL (GeneID 51279)	1.28	inactive
43	C1RL (GeneID 51279)	-0.47	inactive
44	C1RL (GeneID 51279)	-0.06	inactive
45	ST13 (GeneID 6767)	0.76	inactive
46	ST13 (GeneID 6767)	-0.97	inactive
47	ST13 (GeneID 6767)	-0.6	inactive
48	ST13 (GeneID 6767)	-0.86	inactive

Quoted from the listing, 11 entries:
no.	Gene	TNF reporter robust z-score	Call
37	CCDC106 (GeneID 29903)	1.59	inactive
38	CCDC106 (GeneID 29903)	0.59	inactive
39	CCDC106 (GeneID 29903)	2.89	active
40	CCDC106 (GeneID 29903)	1.98	inactive
41	C1RL (GeneID 51279)	-0.1	inactive
42	C1RL (GeneID 51279)	1.28	inactive
43	C1RL (GeneID 51279)	-0.47	inactive
44	C1RL (GeneID 51279)	-0.06	inactive
45	ST13 (GeneID 6767)	0.76	inactive
46	ST13 (GeneID 6767)	-0.97	inactive
47	ST13 (GeneID 6767)	-0.6	inactive

Additional reagents:
no.	Gene	TNF reporter robust z-score	Call
49	AURKB (GeneID 9212)	3.16	active
50	AURKB (GeneID 9212)	1.28	inactive
51	AURKB (GeneID 9212)	0.55	inactive
52	AURKB (GeneID 9212)	0.02	inactive
53	GLUD1 (GeneID 2746)	-0.11	inactive
54	GLUD1 (GeneID 2746)	0.41	inactive
55	GLUD1 (GeneID 2746)	-0.27	inactive
56	GLUD1 (GeneID 2746)	0.8	inactive
57	PLSCR3 (GeneID 57048)	-0.96	inactive
58	PLSCR3 (GeneID 57048)	-0.84	inactive
59	PLSCR3 (GeneID 57048)	-0.24	inactive
60	PLSCR3 (GeneID 57048)	-0.25	inactive
61	ZNF321P (GeneID 399669)	-1.47	inactive
62	ZNF321P (GeneID 399669)	0.77	inactive
63	ZNF321P (GeneID 399669)	-0.29	inactive
64	ZNF321P (GeneID 399669)	0.13	inactive
65	SMIM14 (GeneID 201895)	-0.76	inactive
66	SMIM14 (GeneID 201895)	-0.7	inactive
67	SMIM14 (GeneID 201895)	-0.69	inactive
68	SMIM14 (GeneID 201895)	0.3	inactive
69	TMF1 (GeneID 7110)	1.04	inactive
70	TMF1 (GeneID 7110)	1.56	inactive
71	TMF1 (GeneID 7110)	1.55	inactive
72	TMF1 (GeneID 7110)	1.21	inactive
73	PRRG4 (GeneID 79056)	-0.97	inactive
74	PRRG4 (GeneID 79056)	0.04	inactive
75	PRRG4 (GeneID 79056)	-0.04	inactive
76	PRRG4 (GeneID 79056)	-0.15	inactive
77	PDZK1 (GeneID 5174)	1.62	inactive
78	PDZK1 (GeneID 5174)	1.52	inactive
79	PDZK1 (GeneID 5174)	2.75	inactive
80	PDZK1 (GeneID 5174)	1.89	inactive
81	IFI27 (GeneID 3429)	1	inactive
82	IFI27 (GeneID 3429)	0.55	inactive
83	IFI27 (GeneID 3429)	-0.41	inactive
84	IFI27 (GeneID 3429)	0.01	inactive
85	ACVR2B (GeneID 93)	-1.06	inactive
86	ACVR2B (GeneID 93)	-0.55	inactive
87	ACVR2B (GeneID 93)	-0.29	inactive
88	ACVR2B (GeneID 93)	0.41	inactive
89	LSM3 (GeneID 27258)	-0.43	inactive
90	LSM3 (GeneID 27258)	0.52	inactive
91	LSM3 (GeneID 27258)	0.47	inactive
92	LSM3 (GeneID 27258)	-0.76	inactive
93	LPIN1 (GeneID 23175)	1.99	inactive
94	LPIN1 (GeneID 23175)	0.3	inactive
95	LPIN1 (GeneID 23175)	0.93	inactive
96	LPIN1 (GeneID 23175)	1.6	inactive
97	CT47A10 (GeneID 728036)	2.64	inactive
98	CT47A10 (GeneID 728036)	1.51	inactive
99	CT47A10 (GeneID 728036)	1.83	inactive
100	CT47A10 (GeneID 728036)	3.98	active
101	SNAPC4 (GeneID 6621)	-0.04	inactive
102	SNAPC4 (GeneID 6621)	0.76	inactive
103	SNAPC4 (GeneID 6621)	0.65	inactive
104	SNAPC4 (GeneID 6621)	0.09	inactive
105	EIF5B (GeneID 9669)	-0.87	inactive
106	EIF5B (GeneID 9669)	0.81	inactive
107	EIF5B (GeneID 9669)	-0.75	inactive
108	EIF5B (GeneID 9669)	-0.38	inactive
109	IFI16 (GeneID 3428)	1.41	inactive
110	IFI16 (GeneID 3428)	1.27	inactive
111	IFI16 (GeneID 3428)	0.97	inactive
112	IFI16 (GeneID 3428)	1.62	inactive
